From publication PMC4851335
These are yes or no findings as the source states them, for the method shown. Binding seen in cells or lysates may run through a third protein. Some binding calls cover weakened binding; strength is not graded here. Where a sequence is shown, tags or fusion partners need not be part of it. Blank lines part the entries; values can stand above or below the binder they belong to.

Columns and labels:
[1] = target: T1, COP1-YFP^N (CONSTITUTIVE PHOTOMORPHOGENIC 1 fused with the N-terminal half of YFP) (Arabidopsis) (UniProt P43254); experiment: split reporter; COP1-YFP^N and SIZ1-YFP^C co-expressed in N. benthamiana leaves by Agrobacterium infiltration; YFP fluorescence in the nucleus read under darkness or after 1 h white light (100 umol m^-2 s^-1)
T1 sequence: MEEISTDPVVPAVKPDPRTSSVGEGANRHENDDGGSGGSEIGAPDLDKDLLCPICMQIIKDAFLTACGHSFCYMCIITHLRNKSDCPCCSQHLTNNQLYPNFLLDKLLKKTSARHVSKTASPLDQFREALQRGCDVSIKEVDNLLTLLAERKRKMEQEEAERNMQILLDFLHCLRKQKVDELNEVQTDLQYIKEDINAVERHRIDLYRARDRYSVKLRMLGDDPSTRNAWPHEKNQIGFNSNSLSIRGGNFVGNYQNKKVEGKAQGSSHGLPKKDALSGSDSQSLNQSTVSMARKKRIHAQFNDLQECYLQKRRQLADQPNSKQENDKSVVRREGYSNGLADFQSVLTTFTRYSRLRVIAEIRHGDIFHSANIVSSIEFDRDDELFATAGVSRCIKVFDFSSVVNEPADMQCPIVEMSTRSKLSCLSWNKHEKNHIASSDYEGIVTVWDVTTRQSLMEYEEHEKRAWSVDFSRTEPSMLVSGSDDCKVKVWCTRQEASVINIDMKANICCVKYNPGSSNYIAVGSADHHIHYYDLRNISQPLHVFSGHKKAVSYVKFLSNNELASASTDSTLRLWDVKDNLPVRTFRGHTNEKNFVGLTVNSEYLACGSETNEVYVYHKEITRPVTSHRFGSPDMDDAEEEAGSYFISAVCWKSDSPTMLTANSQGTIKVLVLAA

[2] = target: T2, Myc-COP1 (expressed in Col-0 protoplasts) (Arabidopsis) (UniProt P43254); experiment: co-IP; Myc-COP1 and SIZ1-GFP separately expressed in Col-0 protoplasts, protein extracts mixed; anti-Myc-conjugated agarose beads; SIZ1-GFP detected with anti-GFP antibody
T2 sequence: T1 sequence

binding [1]: binds
B1: SIZ1-YFP^C (SUMO E3 ligase SIZ1 fused with the C-terminal half of YFP) (protein, UniProt Q680Q4 1-884)
chain: MDLEANCKEKLSYFRIKELKDVLTQLGLSKQGKKQELVDRILTLLSDEQAARLLSKKNTVAKEAVAKLVDDTYRKMQVSGASDLASKGQVSSDTSNLKVKGEPEDPFQPEIKVRCVCGNSLETDSMIQCEDPRCHVWQHVGCVILPDKPMDGNPPLPESFYCEICRLTRADPFWVTVAHPLSPVRLTATTIPNDGASTMQSVERTFQITRADKDLLAKPEYDVQAWCMLLNDKVLFRMQWPQYADLQVNGVPVRAINRPGGQLLGVNGRDDGPIITSCIRDGVNRISLSGGDVRIFCFGVRLVKRRTLQQVLNLIPEEGKGETFEDALARVRRCIGGGGGDDNADSDSDIEVVADFFGVNLRCPMSGSRIKVAGRFLPCVHMGCFDLDVFVELNQRSRKWQCPICLKNYSVEHVIVDPYFNRITSKMKHCDEEVTEIEVKPDGSWRVKFKRESERRELGELSQWHAPDGSLCPSAVDIKRKMEMLPVKQEGYSDGPAPLKLGIRKNRNGIWEVSKPNTNGLSSSNRQEKVGYQEKNIIPMSSSATGSGRDGDDASVNQDAIGTFDFVANGMELDSISMNVDSGYNFPDRNQSGEGGNNEVIVLSDSDDENDLVITPGPAYSGCQTDGGLTFPLNPPGIINSYNEDPHSIAGGSSGLGLFNDDDEFDTPLWSFPSETPEAPGFQLFRSDADVSGGLVGLHHHSPLNCSPEINGGYTMAPETSMASVPVVPGSTGRSEANDGLVDNPLAFGRDDPSLQIFLPTKPDASAQSGFKNQADMSNGLRSEDWISLRLGDSASGNHGDPATTNGINSSHQMSTREGSMDTTTETASLLLGMNDSRQDKAKKQRSDNPFSFPRQKRSNNEQDHQTRHRSLNKICIILCAGKN

binding [2]: binds
B2: SIZ1-GFP (expressed in Col-0 protoplasts) (protein, UniProt Q680Q4 1-884)
chain: B1 chain
